Reference: PubChem BioAssay AID1053208 (Peter MacCallum Cancer Centre, 2014)
Aim: 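Synthetic lethal interactions between gene loss and doxorubicin in osteosarcoma cells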 (primary screen). System: mouse osteosarcoma cells, early-passage culture from an engineered mouse model of fibroblastic bone tumour. Knock-down reagent: siRNA pool against mouse genes, 40 nM. Duration: about 120 h (48 h before drug, then 72 h with drug). Challenge: doxorubicin 100 nM for 72 h, roughly 30-40% inhibitory dose. Measurement: 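Viability read as ATP luminescence after 72 h of 100 nM doxorubicin or none, duplicate wells averaged, scaled to non-targeting siRNA, then expressed as robust z-scores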. Reading the numbers: viability z-score with doxorubicin: higher = more viable cells under doxorubicin; viability z-score without drug: higher = more viable cells with knock-down alone. Hit rule: 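a pool counts as active when its viability z-score with doxorubicin is -2 or below and its z-score without drug lies between -2 and 2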.
Here is an unselected part of about 17,000 reagents. 788 of them (4.7%) count as active. 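Calls rest on z-score classes alone; an extra cut-off of viability at most 70% of control was not applied to them.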 Not all columns of the deposit are shown. No sequences are given here.

Target gene | PubChem SID | combined z-score class | viability z-score with doxorubicin | viability z-score without drug | call
Aldh3a2 (GeneID 11671) | SID152274662 | no change with or without drug | 0.34 | 1.35 | inactive
Lrrc8a (GeneID 241296) | SID152343021 | low cell count with and without drug | -3.37 | -2.53 | inactive
Or6c3b (GeneID 258547) | SID152329324 | no change with or without drug | -1.57 | -1.52 | inactive
Prl3a1 (GeneID 67000) | SID152274422 | no change with or without drug | 1.01 | 0.84 | inactive
Krt76 (GeneID 77055) | SID152312254 | no change with or without drug | -0.11 | 0.67 | inactive
Wdr47 (GeneID 99512) | SID152290701 | no change with or without drug | 0.22 | 1.85 | inactive
Csnk2a2ip (GeneID 224291) | SID152297583 | low cell count with doxorubicin only | -2.36 | -1.85 | active
Exosc10 (GeneID 50912) | SID152299685 | low cell count without drug only | -1.12 | -2.19 | inactive
Rpl3 (GeneID 27367) | SID152300642 | low cell count with and without drug | -4.83 | -4.89 | inactive
Otub2 (GeneID 68149) | SID152312432 | no change with or without drug | 0 | 0.51 | inactive
Mbd6 (GeneID 110962) | SID152299895 | no change with or without drug | -0.45 | 0.17 | inactive
Diablo (GeneID 66593) | SID152286161 | no change with or without drug | -0.22 | -0.84 | inactive
Sbno2 (GeneID 216161) | SID152273845 | no change with or without drug | -0.9 | 0.51 | inactive
B3gat3 (GeneID 72727) | SID152281597 | no change with or without drug | 0.34 | 1.18 | inactive
Zfp280c (GeneID 208968) | SID152308194 | no change with or without drug | 0.11 | -0.51 | inactive
Acp6 (GeneID 66659) | SID152269234 | no change with or without drug | 0.22 | -1.18 | inactive
Tff1 (GeneID 21784) | SID152260462 | high cell count with doxorubicin only | 2.92 | 0.51 | inactive
Tcea2 (GeneID 21400) | SID152323070 | no change with or without drug | 0.45 | 1.18 | inactive
Lpar2 (GeneID 53978) | SID152305421 | no change with or without drug | 0.9 | -0.67 | inactive
Rpl15 (GeneID 66480) | SID152306337 | low cell count with and without drug | -6.74 | -7.59 | inactive

3 entries from above, limited to “viability z-score without drug”:
Rpl3 (GeneID 27367) [SID152300642]	-4.89
Otub2 (GeneID 68149) [SID152312432]	0.51
Mbd6 (GeneID 110962) [SID152299895]	0.17
